# Values quoted from earlier work, collected in patent US20130347140A1, “High Rebaudioside-A Plant and Methods of Producing the Same and Uses Thereof” (priority 2010, published 2013).
# Settings: sensory
row,Molecule,Quality of taste
1,C=C1C[C@@]23CC[C@H]4[C@@](C)(CCC[C@@]4(C)C(=O)O[C@@H]4O[C@H](CO)[C@@H](O)[C@H](O)[C@H]4O)[C@@H]2CC[C@]1(O[C@@H]1O[C@H](CO)[C@@H](O)[C@H](O)[C@H]1O[C@@H]1O[C@@H](C)[C@H](O)[C@@H](O)[C@H]1O)C3 [Dulcoside A],Very bitter
2,C=C1C[C@@]23CC[C@H]4[C@@](C)(CCC[C@@]4(C)C(=O)O[C@@H]4O[C@H](CO)[C@@H](O)[C@H](O)[C@H]4O[C@@H]4O[C@H](CO)[C@@H](O)[C@H](O)[C@H]4O)[C@@H]2CC[C@]1(O[C@@H]1O[C@H](CO)[C@@H](O)[C@H](O[C@@H]2O[C@H](CO)[C@@H](O)[C@H](O)[C@H]2O)[C@H]1O[C@@H]1O[C@H](CO)[C@@H](O)[C@H](O)[C@H]1O)C3 [Rebaudioside D],Like sucrose
3,C=C1C[C@@]23CC[C@H]4[C@@](C)(CCC[C@@]4(C)C(=O)O[C@@H]4O[C@H](CO)[C@@H](O)[C@H](O)[C@H]4O[C@@H]4O[C@H](CO)[C@@H](O)[C@H](O)[C@H]4O)[C@@H]2CC[C@]1(O[C@@H]1O[C@H](CO)[C@@H](O)[C@H](O)[C@H]1O[C@@H]1O[C@H](CO)[C@@H](O)[C@H](O)[C@H]1O)C3 [Rebaudioside E],Like sucrose
4,C=C1C[C@@]23CC[C@H]4[C@@](C)(CCC[C@@]4(C)C(=O)O[C@@H]4O[C@H](CO)[C@@H](O)[C@H](O)[C@H]4O)[C@@H]2CC[C@]1(O[C@@H]1O[C@H](CO)[C@@H](O)[C@H](O)[C@H]1O)C3 [Rubusoside],Very bitter
5,C=C1C[C@@]23CC[C@H]4[C@@](C)(CCC[C@@]4(C)C(=O)O)[C@@H]2CC[C@]1(O)C3 [Steviol],Very bitter
6,C=C1C[C@@]23CC[C@H]4[C@@](C)(CCC[C@@]4(C)C(=O)O)[C@@H]2CC[C@]1(O[C@@H]1O[C@H](CO)[C@@H](O)[C@H](O)[C@H]1O[C@@H]1O[C@H](CO)[C@@H](O)[C@H](O)[C@H]1O)C3 [Steviolbioside],Unpleasant
7,C=C1C[C@@]23CC[C@H]4[C@@](C)(CCC[C@@]4(C)C(=O)O[C@@H]4O[C@H](CO)[C@@H](O)[C@H](O)[C@H]4O)[C@@H]2CC[C@]1(O[C@@H]1O[C@H](CO)[C@@H](O)[C@H](O)[C@H]1O[C@@H]1O[C@H](CO)[C@@H](O)[C@H](O)[C@H]1O)C3 [Stevioside],Bitter
8,Rebaudioside B,Bitter
9,Rebaudioside C,Bitter

# Same assay, conditions: sensory; listed as RA
row,Molecule,Quality of taste
1,C=C1C[C@@]23CC[C@H]4[C@@](C)(CCC[C@@]4(C)C(=O)O[C@@H]4O[C@H](CO)[C@@H](O)[C@H](O)[C@H]4O)[C@@H]2CC[C@]1(O[C@@H]1O[C@H](CO)[C@@H](O)[C@H](O[C@@H]2O[C@H](CO)[C@@H](O)[C@H](O)[C@H]2O)[C@H]1O[C@@H]1O[C@H](CO)[C@@H](O)[C@H](O)[C@H]1O)C3 [Rebaudioside A],sweetness flavour comparable to sucrose
